In publication PMC9544108 (Chemmedchem, 2022):

Tests used:
[1] = UV-monitored reversed back-titration with Pb(II) of peptide mixed with ZnCl2 or CaCl2 (metal selectivity); assay type: physicochemical; conditions: peptide 100 μM, Pb(II) 0-1 equiv.; for Pb(II) complexation in the presence of CaCl2, in words: CaCl2 10 mM (100 fold excess)
[2] = UV-monitored back-titration of the Pb(II)-peptide complex with ZnCl2 or CaCl2 (complex stability); assay type: physicochemical; conditions: Pb(II)-peptide 100 μM; for absorption of the LMCT band relative to holo, back-titration with ZnCl2: 20 mM Tris pH 6.5, ZnCl2 0-1 mM (0-10 equiv.), 8: after the second equivalent, 9: highest concentration
[3] = general procedure: Fmoc solid-phase peptide synthesis; 2-chlorotrityl chloride resin; HATU / Hünig's base; conditions: cyclisation step, HCl (ion exchange from TFA)

Row | Molecule | Pb(II) complexation in the presence of CaCl2, in words [1] | Pb(II) complexation in the presence of ZnCl2, in words ([1]; ZnCl2 1 mM) | absorption of the LMCT band relative to holo, back-titration with ZnCl2 ([2]; 317 nm) | LMCT band on adding equimolar ZnCl2, in words ([2]; 1 equiv. ZnCl2) | LMCT band on back-titration with CaCl2, in words ([2]; CaCl2 0-10 mM) | intensity relative to holo absorption, Pb(II) titrated in the presence of ZnCl2 ([1]; 10 equivalents ZnCl2 (1 mM), 20 mM Tris pH 6.5) [%] | absorption of the LMCT band relative to holo, back-titration with CaCl2 ([2]; 20 mM Tris pH 6.5, CaCl2 0-10 mM (0-100 equiv.), highest concentration, 317 nm) [%] | difficulty met [3]
1 | NC(=O)C[C@@H]1NC(=O)CNC(=O)[C@H](CS)NC(=O)CC[C@@H](C(=O)O)NC(=O)[C@H](CC(N)=O)NC(=O)CNC(=O)[C@H](CS)NC(=O)CC[C@@H](C(=O)O)NC1=O [peptide 8] (cyclo(CGN[γGlu]CGN[γGlu])) | same behavior | no typical LMCT | around 30% | did not significantly affect the LMCT band | did not lower its intensity |  |  | 
2 | O=C1CC[C@@H](C(=O)O)NC(=O)[C@H](CS(=O)(=O)O)NC(=O)CNC(=O)[C@H](CS)NC(=O)CC[C@@H](C(=O)O)NC(=O)[C@H](CS(=O)(=O)O)NC(=O)CNC(=O)[C@H](CS)N1 [peptide 9] (cyclo(CG[Cya][γGlu]CG[Cya][γGlu])) | complete complexation with Pb(II) ions |  | 48% |  |  | 42 | 29 | 
3 | PEPTIDE1{A.[bAsp].C.G.A.[bAsp].C.G}$PEPTIDE1,PEPTIDE1,1:R1-8:R2$$$V2.0 |  |  |  |  |  |  |  | LCMS analysis did not reveal full conversion or indicate further reaction progression

For some of these results: Some peptides are written in HELM: one residue between dots, names in brackets for other building blocks, links after the first $. Numbered stars: 1 amine (or outer) side, 2 acyl side, 3 side chain; on linkers, the order of the positions; unused ones are H or OH. Square brackets hold non-standard residues; d marks the D form. Peptide text beside a SMILES is read from it. γGlu = O=C(O)[C@H](CCC(=O)[*:2])N[*:1]; Cya = N[C@@H](CS(=O)(=O)O)C(=O)O
